Results: patent US20150232852
For at least one entry, the source does not settle the construct or the ends of the probe. For some of these results: Negatives hold for the conditions tested. For some of these results: Tags and fusion partners may be left off the protein sequences shown.

Amino acid sequences for entries named in this document (tags omitted). Residues count along the entry.
UniProt P09681, 52-93: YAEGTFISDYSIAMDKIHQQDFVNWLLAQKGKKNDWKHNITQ
UniProt P01275, 53-89: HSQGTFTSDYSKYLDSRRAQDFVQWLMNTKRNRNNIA
UniProt P01275, 98-128: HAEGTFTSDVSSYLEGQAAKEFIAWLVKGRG
UniProt P01275, 53-81: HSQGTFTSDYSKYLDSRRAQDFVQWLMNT

How the values were obtained:
[1] = biological target: T1, Prepro-VIP(81-122) (PHV-42) (Homo sapiens) (UniProt P01282); assay: competition with a labelled probe; details: 5'-40 kDa PEG, mirror-image nucleic acid
T1 sequence: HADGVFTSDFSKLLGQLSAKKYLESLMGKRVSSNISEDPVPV

[2] = biological target: GIP (glucose-dependent insulinotropic polypeptide) (Homo sapiens) (UniProt P09681); assay: competition with a labelled probe; details: 5'-40 kDa PEG, competitive Biacore, mirror-image nucleic acid
[3] = biological target: oxyntomodulin (OXM) (UniProt P01275); assay: competition with a labelled probe; details: 5'-40 kDa PEG, comparable to glucagon, mirror-image nucleic acid
[4] = test system: GLP-2(1-33); assay: competition with a labelled probe; details: 5'-40 kDa PEG, not recognized, competitor up to 2000 nM, mirror-image nucleic acid
[5] = biological target: GLP-1(7-37) (Homo sapiens) (UniProt P01275); assay: competition with a labelled probe; details: 5'-40 kDa PEG, not recognized, competitor up to 2000 nM, mirror-image nucleic acid
[6] = biological target: GIP (glucose-dependent insulinotropic polypeptide) (Homo sapiens) (UniProt P09681); assay: activity in cells; details: 5'-40 kDa PEG, purified recombinant protein, synthetic backbone, mirror-image nucleic acid, dose not given here
[7] = biological target: glucagon, L-form, biotinylated (glucagon1-29-AEEAc-AEEAc-biotin) (Homo sapiens) (UniProt P01275); assay: SPR; details: 5'-40 kDa PEG; L-DNA with L-rA12, L-rG23, L-rU35; 37 C; synthetic protein; mirror-image nucleic acid; variant of 259-H6-014-R12/23/35
[8] = L-DNA with L-rA13, variant of 259-H6-002-R13
[9] = L-DNA with L-rA12, L-rG23, L-rU35, variant of 259-H6-014-R12/23/35

Row | Sequence | binding result ([1]; L-DNA with L-rA13, not recognized, competitor up to 2000 nM, variant of 259-H6-002-R13) | binding result ([2]; L-DNA with L-rA13, also inhibits GIP-induced cAMP, variant of 259-H6-002-R13) | binding result [3, 8] | binding result [4, 8] | binding result [5, 8] | functional effect of the aptamer ([6]; L-DNA with L-ribo A at position 13, dose-dependent inhibition of GIP-induced cAMP, RIN-m5F cells) | binding result [7] | binding result ([1]; L-DNA with L-ribo rA12, rG23, rU35, competitive Biacore, 37 C, purified recombinant protein, synthetic backbone) | binding result [2, 9] | binding result [3, 9] | binding result [4, 9] | binding result [5, 9] | functional effect of the aptamer ([6]; L-DNA with L-ribo rA12, rG23, rU35, inhibited GIP-induced cAMP formation)
1 | ACTCGAGAGGAAAGGTTGGTAAAGGTTCGGTTGGATTCACTCGAGT [NOX-G13 (259-H6-002-R13-5'-PEG)] | no binding | binds | binds | no binding | no binding | active |  |  |  |  |  |  | 
2 | GCCGAGAGGAAAGGTTGGTAAAGGTTCGGTTGGAUTCACTCGGC [NOX-G14 (259-H6-014-R12/23/35-5'-PEG)] |  |  |  |  |  |  | binds | no binding | binds | binds | no binding | no binding | active
